The source of these data is PMC11157819.

By UniProt entry, the sequences of proteins in these tests, tags left out.
UniProt P40763: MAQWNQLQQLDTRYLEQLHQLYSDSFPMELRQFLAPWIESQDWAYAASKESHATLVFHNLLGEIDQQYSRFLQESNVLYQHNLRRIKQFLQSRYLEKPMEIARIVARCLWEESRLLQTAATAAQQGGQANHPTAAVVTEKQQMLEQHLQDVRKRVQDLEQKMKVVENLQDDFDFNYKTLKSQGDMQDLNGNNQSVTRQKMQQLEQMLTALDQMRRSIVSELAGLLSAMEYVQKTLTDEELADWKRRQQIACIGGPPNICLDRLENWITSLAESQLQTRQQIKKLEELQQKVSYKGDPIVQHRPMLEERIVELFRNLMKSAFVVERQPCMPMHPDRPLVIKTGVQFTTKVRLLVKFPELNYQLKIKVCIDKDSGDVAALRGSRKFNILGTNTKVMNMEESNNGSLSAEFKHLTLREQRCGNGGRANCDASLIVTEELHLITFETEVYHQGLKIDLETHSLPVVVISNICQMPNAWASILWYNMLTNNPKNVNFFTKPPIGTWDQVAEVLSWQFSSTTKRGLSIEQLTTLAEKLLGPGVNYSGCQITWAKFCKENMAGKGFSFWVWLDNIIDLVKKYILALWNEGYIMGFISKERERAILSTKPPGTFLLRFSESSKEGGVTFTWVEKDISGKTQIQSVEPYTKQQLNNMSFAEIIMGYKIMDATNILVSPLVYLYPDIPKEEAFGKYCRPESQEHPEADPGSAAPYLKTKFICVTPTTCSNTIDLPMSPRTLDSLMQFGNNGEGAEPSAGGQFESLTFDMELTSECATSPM
UniProt Q14289: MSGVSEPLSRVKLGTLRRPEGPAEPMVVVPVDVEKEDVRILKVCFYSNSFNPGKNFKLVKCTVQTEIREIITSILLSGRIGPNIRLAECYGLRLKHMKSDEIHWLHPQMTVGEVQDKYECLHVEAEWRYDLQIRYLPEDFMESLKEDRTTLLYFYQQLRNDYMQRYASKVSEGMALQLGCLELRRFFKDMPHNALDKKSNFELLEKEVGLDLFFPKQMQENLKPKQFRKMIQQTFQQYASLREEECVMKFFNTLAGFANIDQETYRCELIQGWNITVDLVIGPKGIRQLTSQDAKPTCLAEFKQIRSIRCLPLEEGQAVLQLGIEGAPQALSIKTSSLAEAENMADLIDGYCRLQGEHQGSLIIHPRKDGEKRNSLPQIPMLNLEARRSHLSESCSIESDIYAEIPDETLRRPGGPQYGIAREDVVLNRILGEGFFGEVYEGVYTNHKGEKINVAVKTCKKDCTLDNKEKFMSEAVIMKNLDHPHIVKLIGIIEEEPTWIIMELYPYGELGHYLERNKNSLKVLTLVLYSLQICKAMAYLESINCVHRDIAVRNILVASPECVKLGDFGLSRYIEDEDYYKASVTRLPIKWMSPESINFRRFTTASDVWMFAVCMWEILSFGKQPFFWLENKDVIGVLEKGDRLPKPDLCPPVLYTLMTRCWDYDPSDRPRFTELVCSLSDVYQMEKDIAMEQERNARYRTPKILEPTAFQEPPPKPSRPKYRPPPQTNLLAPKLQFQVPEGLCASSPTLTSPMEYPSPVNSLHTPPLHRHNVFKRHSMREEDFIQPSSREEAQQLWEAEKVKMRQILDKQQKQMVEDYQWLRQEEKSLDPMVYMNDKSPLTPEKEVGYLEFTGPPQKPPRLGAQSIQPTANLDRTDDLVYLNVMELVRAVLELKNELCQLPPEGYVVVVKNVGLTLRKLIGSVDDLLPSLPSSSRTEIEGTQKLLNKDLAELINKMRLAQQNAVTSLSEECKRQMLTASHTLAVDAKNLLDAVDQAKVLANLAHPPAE

The target in one assay is STAT3-MYC (UniProt P40763). As to the kind of experiment: co-IP; exogenous co-IP: HEK293T cells transfected with PYK2-FLAG and STAT3-MYC plasmids for 48 h; lysate incubated overnight at 4 °C with antibody, protein A/G beads, western blot. (A western blot detects proteins with antibodies after separation by electrophoresis.)
Assay [1] deals with Signal transducer and activator of transcription 3 (STAT3) (human (endogenous in A549 and H460)) (UniProt P40763). As to the kind of experiment: co-IP; endogenous co-IP from lysates of confluent NSCLC cells (A549, H460); lysate incubated overnight at 4 °C with 1-2 µg of IgG or antibody against the target protein, protein A/G beads, western blot.

These are yes or no findings as the source states them, for the method shown. In cells and extracts the contact can be indirect. Some binding calls cover weakened binding; strength is not graded here.

Turning to PYK2-FLAG (from UniProt Q14289 1-1009), the binding result with STAT3-MYC is reported as “binds”. Consider “p-PYK2(Tyr402) (from UniProt Q14289 1-1009)”, for which the binding entry in assay [1] is “binds”.
